# Results reported in article PMC5620007.
# Sequences of proteins named here, by UniProt entry; tags and fusion partners are left off. A change or cut given only in a name is not applied to a line headed by its entry. A line that says so, or that is headed by a name, gives the form on record, which may keep a tag or linker. Residues count along the entry.
# Flag tagged LRP6 wild type (O75581, residues 20-1613): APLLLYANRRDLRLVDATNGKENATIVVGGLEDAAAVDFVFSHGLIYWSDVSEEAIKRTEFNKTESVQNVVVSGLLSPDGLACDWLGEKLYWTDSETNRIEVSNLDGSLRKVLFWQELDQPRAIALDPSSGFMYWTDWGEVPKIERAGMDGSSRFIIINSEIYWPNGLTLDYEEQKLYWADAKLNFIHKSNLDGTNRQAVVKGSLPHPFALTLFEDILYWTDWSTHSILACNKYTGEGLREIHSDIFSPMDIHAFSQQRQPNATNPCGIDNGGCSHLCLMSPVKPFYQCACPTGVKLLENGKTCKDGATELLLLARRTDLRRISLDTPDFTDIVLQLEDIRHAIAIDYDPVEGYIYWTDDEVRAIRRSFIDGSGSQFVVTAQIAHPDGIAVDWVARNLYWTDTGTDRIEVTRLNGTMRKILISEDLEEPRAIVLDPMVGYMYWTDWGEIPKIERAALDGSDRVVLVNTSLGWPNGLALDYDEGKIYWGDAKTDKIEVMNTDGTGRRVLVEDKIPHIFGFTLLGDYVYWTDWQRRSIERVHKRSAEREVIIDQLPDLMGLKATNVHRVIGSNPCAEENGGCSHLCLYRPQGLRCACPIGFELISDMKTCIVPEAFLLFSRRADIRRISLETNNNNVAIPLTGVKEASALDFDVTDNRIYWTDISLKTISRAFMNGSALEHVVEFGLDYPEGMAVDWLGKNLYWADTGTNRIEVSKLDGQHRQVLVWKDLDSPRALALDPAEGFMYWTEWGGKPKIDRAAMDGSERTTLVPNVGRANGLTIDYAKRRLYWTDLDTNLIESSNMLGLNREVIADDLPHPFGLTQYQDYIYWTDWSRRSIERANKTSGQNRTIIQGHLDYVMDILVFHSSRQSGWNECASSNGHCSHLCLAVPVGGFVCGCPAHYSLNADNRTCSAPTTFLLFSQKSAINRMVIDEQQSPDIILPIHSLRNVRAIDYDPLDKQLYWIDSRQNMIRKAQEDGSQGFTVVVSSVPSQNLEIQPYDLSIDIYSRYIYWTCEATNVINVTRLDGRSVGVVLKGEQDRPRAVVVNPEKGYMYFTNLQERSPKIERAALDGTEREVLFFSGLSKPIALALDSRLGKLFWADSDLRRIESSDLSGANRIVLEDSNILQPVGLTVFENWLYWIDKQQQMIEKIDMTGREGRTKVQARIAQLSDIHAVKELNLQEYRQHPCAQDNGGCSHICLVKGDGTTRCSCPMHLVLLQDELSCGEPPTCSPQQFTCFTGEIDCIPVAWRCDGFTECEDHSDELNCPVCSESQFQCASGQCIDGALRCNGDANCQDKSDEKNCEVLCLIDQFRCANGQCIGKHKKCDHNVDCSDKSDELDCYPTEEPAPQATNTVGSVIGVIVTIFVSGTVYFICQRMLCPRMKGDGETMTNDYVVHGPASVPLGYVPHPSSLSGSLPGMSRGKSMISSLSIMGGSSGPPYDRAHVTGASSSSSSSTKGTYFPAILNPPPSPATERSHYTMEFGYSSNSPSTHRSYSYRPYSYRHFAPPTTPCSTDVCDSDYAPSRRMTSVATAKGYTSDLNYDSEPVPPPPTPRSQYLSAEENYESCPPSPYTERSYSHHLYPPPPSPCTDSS
# Flag tagged LRP6 D1315N LDLRR mutant (O75581, form named): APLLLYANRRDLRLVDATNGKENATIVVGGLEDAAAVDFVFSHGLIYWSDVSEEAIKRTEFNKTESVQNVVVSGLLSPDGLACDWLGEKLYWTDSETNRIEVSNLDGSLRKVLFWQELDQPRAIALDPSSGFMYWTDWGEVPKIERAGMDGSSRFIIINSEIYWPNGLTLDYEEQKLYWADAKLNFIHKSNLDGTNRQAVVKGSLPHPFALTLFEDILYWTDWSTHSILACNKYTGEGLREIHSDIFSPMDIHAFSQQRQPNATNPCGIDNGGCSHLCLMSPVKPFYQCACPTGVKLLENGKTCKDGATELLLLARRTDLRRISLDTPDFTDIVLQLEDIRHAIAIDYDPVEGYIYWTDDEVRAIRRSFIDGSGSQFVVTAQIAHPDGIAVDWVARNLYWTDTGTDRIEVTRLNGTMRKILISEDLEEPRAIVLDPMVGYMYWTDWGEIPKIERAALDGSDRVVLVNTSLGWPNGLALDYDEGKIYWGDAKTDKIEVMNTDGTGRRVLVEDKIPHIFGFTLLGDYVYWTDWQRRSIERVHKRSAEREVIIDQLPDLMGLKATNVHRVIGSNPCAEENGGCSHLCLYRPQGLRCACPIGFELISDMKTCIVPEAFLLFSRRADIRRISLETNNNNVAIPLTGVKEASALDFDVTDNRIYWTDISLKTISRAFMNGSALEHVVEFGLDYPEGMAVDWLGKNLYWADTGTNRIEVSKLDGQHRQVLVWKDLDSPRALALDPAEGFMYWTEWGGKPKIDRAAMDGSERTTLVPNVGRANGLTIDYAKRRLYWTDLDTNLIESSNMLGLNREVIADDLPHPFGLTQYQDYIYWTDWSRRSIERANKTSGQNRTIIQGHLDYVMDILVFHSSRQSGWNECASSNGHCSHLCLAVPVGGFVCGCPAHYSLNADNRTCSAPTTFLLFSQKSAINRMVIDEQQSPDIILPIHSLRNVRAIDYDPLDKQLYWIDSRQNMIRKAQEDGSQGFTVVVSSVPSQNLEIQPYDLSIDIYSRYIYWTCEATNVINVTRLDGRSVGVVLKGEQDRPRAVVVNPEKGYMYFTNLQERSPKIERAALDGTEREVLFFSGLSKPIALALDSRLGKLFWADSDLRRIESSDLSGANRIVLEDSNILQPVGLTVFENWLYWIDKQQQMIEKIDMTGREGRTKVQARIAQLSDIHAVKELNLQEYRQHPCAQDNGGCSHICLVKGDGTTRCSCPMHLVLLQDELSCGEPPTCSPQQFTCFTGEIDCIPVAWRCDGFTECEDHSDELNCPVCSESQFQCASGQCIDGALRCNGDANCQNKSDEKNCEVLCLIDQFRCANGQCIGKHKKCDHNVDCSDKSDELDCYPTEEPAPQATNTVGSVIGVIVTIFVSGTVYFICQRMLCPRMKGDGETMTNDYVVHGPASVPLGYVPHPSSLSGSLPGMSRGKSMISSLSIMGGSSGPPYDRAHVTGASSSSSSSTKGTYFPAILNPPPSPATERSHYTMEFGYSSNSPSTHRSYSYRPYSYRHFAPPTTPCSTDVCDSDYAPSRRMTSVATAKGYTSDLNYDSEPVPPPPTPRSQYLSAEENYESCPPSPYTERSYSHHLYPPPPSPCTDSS
# UniProt O15169: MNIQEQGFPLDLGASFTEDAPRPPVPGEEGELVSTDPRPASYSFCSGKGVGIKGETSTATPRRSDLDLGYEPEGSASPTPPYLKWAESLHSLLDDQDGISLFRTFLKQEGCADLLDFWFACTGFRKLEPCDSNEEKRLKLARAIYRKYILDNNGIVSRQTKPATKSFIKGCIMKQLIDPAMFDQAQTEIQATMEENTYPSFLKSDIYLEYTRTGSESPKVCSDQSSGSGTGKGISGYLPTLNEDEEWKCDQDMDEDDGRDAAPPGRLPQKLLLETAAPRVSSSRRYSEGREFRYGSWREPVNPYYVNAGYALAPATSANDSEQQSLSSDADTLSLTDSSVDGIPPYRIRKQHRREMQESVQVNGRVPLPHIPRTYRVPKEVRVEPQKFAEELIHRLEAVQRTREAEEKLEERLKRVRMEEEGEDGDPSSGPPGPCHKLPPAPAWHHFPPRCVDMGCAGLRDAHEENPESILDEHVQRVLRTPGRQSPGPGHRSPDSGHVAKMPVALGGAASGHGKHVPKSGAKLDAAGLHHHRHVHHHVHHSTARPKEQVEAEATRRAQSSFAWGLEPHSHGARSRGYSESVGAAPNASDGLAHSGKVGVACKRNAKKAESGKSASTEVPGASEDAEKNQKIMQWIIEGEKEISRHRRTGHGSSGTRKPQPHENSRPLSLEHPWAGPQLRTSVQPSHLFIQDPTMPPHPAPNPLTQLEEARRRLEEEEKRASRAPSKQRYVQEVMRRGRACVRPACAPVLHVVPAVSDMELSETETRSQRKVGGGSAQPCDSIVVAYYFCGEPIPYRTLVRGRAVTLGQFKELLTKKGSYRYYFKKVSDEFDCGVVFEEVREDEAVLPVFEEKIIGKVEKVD
# Itch wild type (transfected) (Q96J02-2, form named): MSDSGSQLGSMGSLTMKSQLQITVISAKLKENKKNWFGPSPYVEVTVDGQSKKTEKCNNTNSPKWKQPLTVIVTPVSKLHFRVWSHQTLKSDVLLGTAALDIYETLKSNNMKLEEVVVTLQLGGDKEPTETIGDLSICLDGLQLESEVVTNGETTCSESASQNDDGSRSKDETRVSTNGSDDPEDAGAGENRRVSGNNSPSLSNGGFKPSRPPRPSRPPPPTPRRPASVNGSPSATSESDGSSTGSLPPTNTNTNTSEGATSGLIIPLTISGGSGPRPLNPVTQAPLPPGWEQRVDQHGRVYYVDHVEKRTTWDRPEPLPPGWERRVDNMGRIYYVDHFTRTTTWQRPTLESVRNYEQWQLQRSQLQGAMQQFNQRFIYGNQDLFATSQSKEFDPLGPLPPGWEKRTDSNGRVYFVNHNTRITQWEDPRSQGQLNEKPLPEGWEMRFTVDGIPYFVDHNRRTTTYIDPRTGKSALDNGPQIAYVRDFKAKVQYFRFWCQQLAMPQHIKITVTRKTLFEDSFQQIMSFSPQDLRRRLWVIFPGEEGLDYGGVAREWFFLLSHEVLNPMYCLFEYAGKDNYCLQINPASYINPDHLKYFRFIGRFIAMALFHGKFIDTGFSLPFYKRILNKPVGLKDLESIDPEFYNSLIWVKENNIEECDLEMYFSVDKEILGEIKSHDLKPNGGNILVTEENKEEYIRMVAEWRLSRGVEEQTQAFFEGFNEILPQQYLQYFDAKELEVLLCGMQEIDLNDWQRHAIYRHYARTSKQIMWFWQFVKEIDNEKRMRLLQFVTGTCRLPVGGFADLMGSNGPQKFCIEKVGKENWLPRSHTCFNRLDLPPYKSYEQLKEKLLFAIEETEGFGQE
# UniProt O75197, residues 32-1615: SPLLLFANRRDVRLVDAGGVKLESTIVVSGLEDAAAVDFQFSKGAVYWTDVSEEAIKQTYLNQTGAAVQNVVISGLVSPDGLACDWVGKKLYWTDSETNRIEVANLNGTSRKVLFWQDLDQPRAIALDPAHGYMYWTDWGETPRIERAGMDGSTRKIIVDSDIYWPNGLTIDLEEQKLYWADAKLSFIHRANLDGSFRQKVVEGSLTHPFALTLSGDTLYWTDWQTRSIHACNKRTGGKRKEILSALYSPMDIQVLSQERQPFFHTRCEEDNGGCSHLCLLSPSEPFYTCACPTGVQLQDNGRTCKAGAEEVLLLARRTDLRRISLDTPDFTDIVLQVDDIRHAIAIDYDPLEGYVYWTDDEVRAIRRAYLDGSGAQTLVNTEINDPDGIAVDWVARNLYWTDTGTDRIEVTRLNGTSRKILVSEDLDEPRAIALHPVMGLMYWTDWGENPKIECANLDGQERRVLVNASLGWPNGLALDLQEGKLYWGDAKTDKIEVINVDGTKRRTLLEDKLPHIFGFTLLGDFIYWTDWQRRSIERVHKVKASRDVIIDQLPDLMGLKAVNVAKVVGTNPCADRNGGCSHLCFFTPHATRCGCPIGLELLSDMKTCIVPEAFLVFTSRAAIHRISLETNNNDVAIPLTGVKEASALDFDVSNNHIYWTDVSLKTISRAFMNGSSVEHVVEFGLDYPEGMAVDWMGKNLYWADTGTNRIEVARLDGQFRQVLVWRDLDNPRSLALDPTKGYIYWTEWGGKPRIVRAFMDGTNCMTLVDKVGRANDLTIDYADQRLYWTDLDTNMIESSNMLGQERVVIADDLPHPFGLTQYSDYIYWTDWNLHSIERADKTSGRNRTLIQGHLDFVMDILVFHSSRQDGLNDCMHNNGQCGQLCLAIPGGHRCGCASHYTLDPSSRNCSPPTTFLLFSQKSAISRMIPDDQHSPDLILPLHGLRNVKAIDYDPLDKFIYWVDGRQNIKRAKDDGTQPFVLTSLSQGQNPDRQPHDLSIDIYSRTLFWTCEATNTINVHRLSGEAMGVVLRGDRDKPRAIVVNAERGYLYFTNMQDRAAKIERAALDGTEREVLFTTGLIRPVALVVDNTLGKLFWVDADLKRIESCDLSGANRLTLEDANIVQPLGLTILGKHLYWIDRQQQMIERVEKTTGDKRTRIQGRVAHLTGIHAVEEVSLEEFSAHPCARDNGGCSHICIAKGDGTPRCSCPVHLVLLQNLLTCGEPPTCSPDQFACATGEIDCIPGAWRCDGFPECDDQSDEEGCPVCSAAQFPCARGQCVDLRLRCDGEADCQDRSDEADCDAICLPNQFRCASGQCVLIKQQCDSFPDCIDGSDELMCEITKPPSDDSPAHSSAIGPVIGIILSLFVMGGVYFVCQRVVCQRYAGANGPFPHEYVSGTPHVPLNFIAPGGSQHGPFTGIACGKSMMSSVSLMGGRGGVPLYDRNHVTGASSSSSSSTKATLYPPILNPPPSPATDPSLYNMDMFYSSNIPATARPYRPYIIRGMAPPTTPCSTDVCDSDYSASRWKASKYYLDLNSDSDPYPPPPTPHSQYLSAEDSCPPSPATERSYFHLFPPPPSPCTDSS
# No constants are given. Whether binding was seen depends on the method and setting. In cells and extracts the contact can be indirect. Some results given as binding are weak or reduced against the parent protein; the word gives no strength.
# Legend:
# [1] = target: Flag tagged LRP6 wild type (human) (UniProt O75581); test: co-IP; lysates of 293T cells co-expressing Flag-LRP6 and HA-Axin; IP with anti LRP6 antibody or axin antibody; NP40 buffer
# [2] = target: Flag tagged LRP6 D1315N LDLRR mutant (human) (UniProt O75581); test: as above
# [3] = target: endogenous LRP6 (human (endogenous in 293T)) (UniProt O75581); test: as above
# [4] = target: Flag tagged LRP6 S1317P LDLRR mutant (human) (UniProt O75581); test: as above
# [5] = target: Flag tagged LRP6 wild type (human) (UniProt O75581); test: co-IP; 293T cells transfected with wild type Itch, then with LRP6 WT or KR mutant; Wnt3a for 1hr; IP with Flag, immunoblotting; IgG control IP
# [6] = target: Flag tagged LRP6 wild type (human) (UniProt O75581); test: co-IP; 293T cells co-expressing LRP6 and LRP5-WT; IP with LRP6 or LRP5 antibodies; NP40 buffer
# [7] = target: Flag tagged LRP6 D1315N LDLRR mutant (human) (UniProt O75581); test: as above
# [8] = target: Flag tagged LRP6 S1317P LDLRR mutant (human) (UniProt O75581); test: as above
substance,measurement,setting,value
HA tagged Axin (from UniProt O15169 1-862),binding,[1],binds
same,binding,[2],binds
same,binding,[3],binds
same,binding,[4],binds
Itch wild type (transfected) (from UniProt Q96J02-2 1-862) (enzyme),binding,[5],binds
LRP5-WT (from UniProt O75197 32-1615) (receptor),binding,[6],binds
same,binding,[7],binds
same,binding,[8],binds
